Test systems include SERPINA7 (human); SERPINB1 (human); SERPINB2 (human); SERPINB3 (human); SERPINB5 (human); SERPINB6 (human); SERPINB7 (human); SERPINB8 (human); SERPINB9 (human); SETMAR (human); SF3A3 (human); SF3B3 (human); SFT2D1 (human); SFXN1 (human); SFXN2 (human); SFXN3 (human); SGCA (human); SGK2 (human); SGTA (human); SH2B1 (human).
Common to all, as to experiment: protein microarray (ProtoArray v5.0), streptavidin-Alexa Fluor 647
Details in all cases: 3'-biotin; 20 mM Tris (pH 7.5), 5 mM MgCl2, 100 mM KCl, 0.1% Tween-20, A/T-rich and random oligonucleotide blockers; temperature not stated; high values mean tight binding

Values joined by “and” are separate entries in the source; they are usually repeats but may differ in a detail not shown here. Identical values can stand only once. Some of the results follow.

Turning to “GGGAGGCTGAGGCAGG [G4-1 biotinylated (PQS2)]”, the binding signal in the assay with SERPINA7 (human) is -0.332 z-score; in the assay on SERPINB1 (human), -0.331 z-score; with SERPINB2 (human) it was -0.329 z-score; in the assay with SERPINB3 (human) it was -0.323 z-score; in the assay with SERPINB5 (human), -0.318 z-score; in the assay on SERPINB6 (human), -0.326 z-score. Also, the binding signal is -0.328 z-score with SERPINB7 (human); -0.254 z-score in the assay on SERPINB8 (human); -0.328 z-score in the assay with SERPINB9 (human); -0.265 z-score in the assay on SETMAR (human); -0.346 z-score with SF3A3 (human); -0.319 z-score and -0.32 z-score in the assay with SF3B3 (human). In addition, the binding signal in the assay on SFT2D1 (human) was -0.337 z-score; in the assay on SFXN1 (human), -0.346 z-score and -0.272 z-score; in the assay with SFXN2 (human), -0.272 z-score; in the assay with SFXN3 (human), -0.348 z-score; in the assay with SGCA (human) it was -0.326 z-score; in the assay on SGK2 (human), -0.318 z-score. The binding signal with SGTA (human) is -0.352 z-score; in the assay with SH2B1 (human), -0.345 z-score.
